Measured values: the supplement of paper PMC12823440, “Inhibitors supercharge kinase turnover through native proteolytic circuits” (Nature, 2025)
Structures can show the parent of a compound that is named as a salt. The list shows a part of the results. Hit calls seldom repeat between salt and free forms of one compound.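 Kinases, fused to nanoluciferase, were expressed in K562 cells; luminescence was measured every 4 h from 2 to 18 h as percent of control (DMSO = 100%, positive control = 0%). A time point is decreased if signal falls significantly (2 sigma). Hits were called by the authors by a rule that is not shown; the count of time points alone does not decide it.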

Protein sequences, listed by entry. Tags and fused reporters are not part of them. Lines headed by an entry give the natural chain unless they say otherwise; changes in a name come on top.
UniProt Q6PHR2: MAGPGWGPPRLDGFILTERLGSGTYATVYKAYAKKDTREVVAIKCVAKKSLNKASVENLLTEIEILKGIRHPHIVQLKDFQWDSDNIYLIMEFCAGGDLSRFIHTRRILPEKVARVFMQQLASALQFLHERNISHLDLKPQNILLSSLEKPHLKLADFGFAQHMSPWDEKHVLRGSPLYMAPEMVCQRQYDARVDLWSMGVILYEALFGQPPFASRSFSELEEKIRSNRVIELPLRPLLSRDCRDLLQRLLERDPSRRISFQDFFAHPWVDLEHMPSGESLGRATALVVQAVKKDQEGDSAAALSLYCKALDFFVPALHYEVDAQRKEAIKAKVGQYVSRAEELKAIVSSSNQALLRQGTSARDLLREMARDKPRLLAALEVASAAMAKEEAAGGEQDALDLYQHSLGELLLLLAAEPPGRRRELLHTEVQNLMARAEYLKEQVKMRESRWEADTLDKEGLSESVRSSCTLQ

These compounds were tested against ULK3 (UniProt Q6PHR2) (assay: number of time points (of 5) at which kinase-Nluc abundance scored as decreased, DMSO-normalised (count); higher = more persistent destabilization). Conditions: K562; 2-18 h.

Row | SMILES | number of time points
1 | COc1ccc(Cn2cc(C(=O)N=Nc3c(O)[nH]c4c(C)cccc34)nn2)cc1 [MARK4 inhibitor 1] (10 µM) | 0
2 | COc1cc([N+](=O)[O-])ccc1S(=O)(=O)N1C[C@@H](CN2CCN(c3ccccn3)CC2)[C@H](c2cccc(F)c2)C1 (relative stereo) (10 µM) | 0
3 | Cc1cc(Nc2nc(N[C@@H](C)c3ccc(F)cc3)c(C#N)cc2F)n[nH]1 (10 µM) | 0
4 | Cc1ccc(S(=O)(=O)/C=C/C#N)cc1 (10 µM) | 0
5 | Cc1c(CN2CCN(S(C)(=O)=O)CC2)sc2c(N3CCOCC3)nc(-c3cnc(N)nc3)nc12 (2.5 µM) | 0
6 | COc1ccc(-c2ccc3c(N4CCOC[C@@H]4C)nc(N4CCOC[C@@H]4C)nc3n2)cc1CO (2.5 µM) | 3
7 | CCN(CC)S(=O)(=O)c1ccc(OC)c(N2CCN(C(=O)c3ccc(F)cc3C(F)(F)F)CC2)c1 (10 µM) | 0
8 | CC1CN(C(=O)Nc2ccc(Cl)c(Cl)c2)C(=Nc2ccc(F)cc2)S1 (configuration not stated) (10 µM) | 0
9 | COCCO[C@@H]1[C@H](O)[C@@H](CO)O[C@H]1n1cnc2c(=O)[nH]c(N)nc21 [2′-O-(2-Methoxyethyl)guanosine] (10 µM) | 0
10 | COc1cc(F)c(F)c(Nc2ccc(I)cc2F)c1NS(=O)(=O)C1(C[C@H](O)CO)CC1 [Refametinib] (10 µM) | 2
11 | CC(C)=CC[C@H](O)C1=CC(=O)c2c(O)ccc(O)c2C1=O [(-)-Alkannin] (2.5 µM) | 0
12 | C[C@@]1(O)CCC[C@H]1n1c(=O)c(C(F)F)cc2cnc(NC3CCN(S(C)(=O)=O)CC3)nc21 (2.5 µM) | 0
13 | CS(=O)(=O)c1ccc(-c2noc(C(F)(F)F)c2-c2ccccc2)cc1 (10 µM) | 0
14 | COc1ccc2[nH]cc(/C=C3\C(=O)Nc4ccc(NC(=O)CCN5CCCCC5)cc43)c2c1 (2.5 µM) | 0
15 | O=C(Nc1ccc(F)cc1F)[C@H](NC(=S)Nc1cc(C(F)(F)F)cc(C(F)(F)F)c1)c1ccccc1 (2.5 µM) | 0
16 | CC(C)CN[C@H]1CS(=O)(=O)C[C@@H]1S(=O)(=O)c1ccc(Cl)cc1 (10 µM) | 1

Ordered by heavy-atom count (falling): nine of the compounds above.
Row | SMILES | number of time points
2 | COc1cc([N+](=O)[O-])ccc1S(=O)(=O)N1C[C@@H](CN2CCN(c3ccccn3)CC2)[C@H](c2cccc(F)c2)C1 (relative stereo) (10 µM) | 0
7 | CCN(CC)S(=O)(=O)c1ccc(OC)c(N2CCN(C(=O)c3ccc(F)cc3C(F)(F)F)CC2)c1 (10 µM) | 0
12 | C[C@@]1(O)CCC[C@H]1n1c(=O)c(C(F)F)cc2cnc(NC3CCN(S(C)(=O)=O)CC3)nc21 (2.5 µM) | 0
10 | COc1cc(F)c(F)c(Nc2ccc(I)cc2F)c1NS(=O)(=O)C1(C[C@H](O)CO)CC1 [Refametinib] (10 µM) | 2
3 | Cc1cc(Nc2nc(N[C@@H](C)c3ccc(F)cc3)c(C#N)cc2F)n[nH]1 (10 µM) | 0
13 | CS(=O)(=O)c1ccc(-c2noc(C(F)(F)F)c2-c2ccccc2)cc1 (10 µM) | 0
16 | CC(C)CN[C@H]1CS(=O)(=O)C[C@@H]1S(=O)(=O)c1ccc(Cl)cc1 (10 µM) | 1
11 | CC(C)=CC[C@H](O)C1=CC(=O)c2c(O)ccc(O)c2C1=O [(-)-Alkannin] (2.5 µM) | 0
4 | Cc1ccc(S(=O)(=O)/C=C/C#N)cc1 (10 µM) | 0

Next records

Row | SMILES | number of time points
17 | COc1ccc(C2CC(c3ccccc3)=NN2c2ccc(S(N)(=O)=O)cc2)cc1 (configuration not stated) (10 µM) | 0
18 | CC/C=C\C/C=C\C/C=C\CCCCCCCC(=O)O [α-Linolenic acid] (10 µM) | 0
19 | O=C(Nc1nc2ccccc2[nH]1)c1cccc(-n2cccc2)c1 (10 µM) | 0
20 | COc1ncc(-c2nc(N3CCOCC3)nc3c(CN4CCC(C(C)(C)O)CC4)cc(F)cc23)cc1NS(C)(=O)=O [Linperlisib] (10 µM) | 0
21 | COc1ccc([C@H]2c3[nH]c4ccc(Cl)cc4c3CCN2C(=O)Oc2ccc(Cl)cc2)cc1 (2.5 µM) | 0
22 | COc1c(NC(=O)C(=O)c2ccc(OCCN3CCOCC3)c3ccccc23)cc(C(C)(C)C)cc1NS(C)(=O)=O (2.5 µM) | 0
23 | COc1ccc([C@@H]2CC(=O)c3c(O)cc(O)cc3O2)cc1O [Hesperetin] (10 µM) | 0
24 | N#Cc1cccc(-c2c[nH]c3ncnc(N4CCOCC4)c23)c1 (10 µM) | 0
25 | C/C(=C1/C(=O)Nc2ccc(NC(N)=O)cc21)c1ccc[nH]1 (10 µM) | 0
26 | Nc1ncnc2c1c(-c1ccc(Oc3ccccc3)cc1)nn2C1CCNCC1 [N-piperidine Ibrutinib (hydrochloride)] (10 µM) | 0
27 | N#Cc1ccc2ncnc(NC3CCC(N4CCOCC4)CC3)c2c1 (configuration not stated) (10 µM) | 0
28 | CC(=O)c1c(C)c2cnc(Nc3ccc(N4CCN(CCCCNC(=O)COc5cccc6c5C(=O)N(C5CCC(=O)NC5=O)C6=O)CC4)cn3)nc2n(C2CCCC2)c1=O (configuration not stated) (10 µM) | 0
29 | CC(C)=CC(=O)CCC(=O)N1CCN(Cc2cc3nc(-c4cccc5[nH]ncc45)nc(N4CCOCC4)c3s2)CC1 (10 µM) | 0
30 | Cc1ccc(S(=O)(=O)Nc2ccccc2C=Nc2ccccc2NS(=O)(=O)c2ccc(C)cc2)cc1 (10 µM) | 0
31 | NCCN1CCN(C/C=C/C(=O)N2CCC[C@@H](n3nc(-c4ccc(Oc5ccccc5)cc4)c4c(N)ncnc43)C2)CC1 [Ibrutinib-MPEA] (10 µM) | 0
32 | O=C(CNC(=O)c1ccc(-c2ccccc2)cc1)NC1CCCc2ccccc21 (configuration not stated) [TAO Kinase inhibitor 1] (10 µM) | 0
